Results: US20120255853A1, “Method for Producing Superoxide, Method for Evaluating Superoxide Scavenging Ability, Device for Producing Superoxide, and Device for Evaluating Superoxide Scavenging Ability” (Sapporo Medical University, priority 2009, published 2012)

Test: Superoxide generation by visible light irradiation of an aqueous solution of redox reaction catalyst, electron donor and CYPMPO, measured by ESR

Cc1cc2nc3c(=O)[nH]c(=O)nc-3n(C[C@H](O)[C@H](O)[C@H](O)COP(=O)(O)O)c2cc1C [FMN, flavin mononucleotide]
Shape of ESR spectrum versus standard spectrum of superoxide (FMN 5 μmol/L, electron donor EDTA 5 mmol/L): in a similarity relationship
Shape of ESR spectrum versus standard spectrum of superoxide (FMN 10 μmol/L, electron donor TMD 10 mmol/L): different
